The nature of the experiment: qHTS Assay for Lipid Storage Modulators in Drosophila S3 Cells.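 On cell number change: cells counted by Cell Tracker Red CMTPX staining in the red channel.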 Particulars: BODIPY lipid droplet fluorescence, 18-24 h; for cell number change: measured here: cell count max response, cells fed with added oleic acid. The essentials:
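Drosophila S3 cells got compounds at several concentrations plus oleic acid (400 uM solution). Laser-scanning cytometry with 488 nm excitation read lipid droplets at 500-530 nm and cells at 575-640 nm. Percent activity was relative to 20 uM Triacsin C.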

The mark [1] stands for this setting: measured here: lipid fluorescence (Fed channel) AC50, cells fed with added oleic acid.
Where [2] appears, read: measured here: cell number channel AC50, cells fed with added oleic acid.

Among the data in PubChem BioAssay AID2685 (National Center for Advancing Translational Sciences (NCATS), 2010) are cell number change and AC50 values, retold here.

This is one part of the list. Further columns of the screen follow, without active or inactive calls. Most of these compounds were active or inconclusive in the main read-out, so they are no random draw. Potencies come from curve fits of mixed quality, noted in brackets.

On to `O=C(CSc1nnnn1-c1ccccc1)Nc1ccc(Cl)cc1`, for which the cell number change was -8.86%. For the same molecule, the AC50 under setting [1] was 1.3 µM [rising, partial curve].
Regarding `COc1ccc(OC)c(NC(=O)c2ccc(CN3CCOCC3)cc2)c1`, the cell number change is -3.78%. For the same molecule, under setting [1], the AC50 is 0.082 µM [falling, single point].
For the molecule `CC(C)C(c1nnnn1C1CCCCC1)N1CCCc2ccccc21` (stereo not given), the cell number change is -33%. For the same molecule, the AC50 under setting [2] is 32.6 µM [falling, single point]. In addition, the AC50 under setting [1] was 23.1 µM [falling, single point].
Consider `Cc1ccccc1OCCCCc1c(C)n[nH]c1C`, for which the cell number change is -45%. The AC50 under setting [2] was 11.6 µM [falling, partial curve]. Under setting [1], the AC50 is 10.3 µM [falling, partial curve, poor fit].
As for `O=C(NN1C(=O)NC2(CCCCC2)C1=O)c1ccc(Cl)c(Cl)c1`, the cell number change was -15.1%. In addition, the AC50 under setting [1] was 0.00411 µM [falling, full curve, poor fit].
Take `CCOc1ccc2nc(SCC(=O)NCc3ccccc3)[nH]c2c1`: the cell number change was -28.1%. Moreover, the AC50 under setting [1] is 16.4 µM [falling, partial curve].
In the case of `CN(CCOc1ccccc1)C(=S)Nc1ccc(OC(F)F)cc1`, the cell number change amounted to 8.57%. Further, the AC50 under setting [2] is 0.651 µM [rising, partial curve, poor fit]. Moreover, the AC50 under setting [1] was 6.51 µM [falling, single point].
Turning to `Cc1ccnc(NC(=O)c2cc3c(=O)oc4ccc(C)cc4c3s2)c1`, the cell number change came out at 22.4%.
Turning to `COc1cccc(N2CCN(S(=O)(=O)c3cccc4cccnc34)CC2)c1`, the cell number change is -14.4%. Besides, under setting [1], the AC50 was 0.103 µM [falling, full curve, poor fit].
Turning to `COc1ccc(S(=O)(=O)N2CCCCC2)cc1NC(=O)Cc1sc(C)nc1-c1ccc(F)cc1`, the cell number change was found to be 75%. Moreover, the AC50 under setting [2] was 4.11 µM [rising, single point].
With `CC(C)NC(=O)c1cccc(Cn2cc(Cl)cn2)c1`, the cell number change amounted to 10.1%. Moreover, the AC50 under setting [1] is 2.06 µM [falling, single point].
Take `Cc1cccc(N=C(N2CCOCC2)P(=O)(N2CCOCC2)N2CCOCC2)c1`: the cell number change was -106%. Moreover, under setting [2], the AC50 was 25.9 µM [falling, partial curve]. Also, the AC50 under setting [1] was 18.4 µM [falling, partial curve].
`CN(C)c1ccc(C2C=C(c3ccc(Cl)cc3OC(F)F)Nc3ncnn32)cc1` (stereo not given): the AC50 is 0.731 µM [rising, partial curve] under setting [2] and 0.517 µM [rising, partial curve] under setting [1].
Take `Cc1ccc(N(C)C(=O)c2cc(S(=O)(=O)N3CCc4ccccc43)cn2C)cc1`: the cell number change was 1.15%. For the same molecule, the AC50 under setting [1] is 0.651 µM [falling, single point].
As for `O=C(NCc1n[nH]c(=S)n1Cc1ccccc1)c1ccccc1`, the cell number change was 56.3%. Moreover, the AC50 under setting [2] was 20.6 µM [rising, single point].
For the molecule `Cc1ccnc(NC(NC(=O)C(C)C)(C(F)(F)F)C(F)(F)F)c1`, the cell number change was -9.07%. Further, the AC50 under setting [1] is 0.116 µM [rising, full curve, poor fit].
Turning to `CC1CCN(S(=O)(=O)N2CCCC(C(=O)NCc3ccc(F)cc3)C2)CC1` (stereo not given), the cell number change is -6.6%.
Same read-out and setting: next, `CN(C)S(=O)(=O)c1cccc(NC(=O)COC(=O)COc2ccccc2[N+](=O)[O-])c1`: 10.7%.
As to `O=C1NC2=C(C(=O)CCC2)C(c2ccc([N+](=O)[O-])cc2)N1` (stereo not given), the cell number change worked out at 20.6%. The AC50 under setting [1] is 7.31 µM [rising, partial curve].
Turning to `CCOP(=O)(OCC)C(Nc1cccc([N+](=O)[O-])c1)c1ccccc1` (stereo not given), the AC50 under setting [1] is 0.00461 µM [rising, full curve, poor fit].
For the molecule `CC(=O)c1ccc(S(=O)(=O)NCC(=O)Nc2nc3ccccc3[nH]2)cc1`, the cell number change is -14.6%. The AC50 under setting [1] is 25.9 µM [rising, single point].
Consider `CCC(C)Sc1ccc(-c2nc3ccc(C)cn3c2NCc2ccccc2)cc1OC` (stereo not given), for which the cell number change is -54.7%. Also, under setting [2], the AC50 is 29.1 µM [falling, single point].
In the case of `CCCSc1ccc([C@@H]2[C@H]3C(=O)N(CC)C(=O)[C@H]3[C@]3(C(=O)OC)CCCCN23)cc1`, the cell number change was -16.3%.
As to `CN(C)CCCn1c(-c2ccccc2)nc(=S)c2c1CCCC2`, the cell number change is -22.5%. Under setting [1], the AC50 was 23.1 µM [falling, single point].
Consider `Cc1ccc(C(=O)Oc2coc(CSc3nnc(NC(=O)c4cccs4)s3)cc2=O)cc1C`, for which the cell number change turned out to be 55.9%. Under setting [2], the AC50 was 29.1 µM [rising, partial curve, poor fit]. The AC50 under setting [1] was 14.6 µM [rising, single point].
Take `CC(=O)c1cccc(NC(=O)C2CC(c3ccc(F)cc3)=NO2)c1` (stereo not given): the cell number change was -4.59%. The AC50 under setting [1] is 20.6 µM [rising, partial curve].
For the molecule `NC(=O)CC(NC(=O)Cc1cccc2ccccc12)c1ccc(NCCN2CCCC2)c([N+](=O)[O-])c1` (stereo not given), the cell number change is -6.15%. Further, the AC50 under setting [1] was 2.91 µM [rising, single point].
Consider `COc1ccc(OC)c(C2C3=C(CCCC3=O)Nc3c2c(=O)n(C)c(=O)n3C)c1` (stereo not given), for which the cell number change came to 14.4%. Besides, under setting [1], the AC50 was 6.51 µM [falling, single point].
As to `O=C(CN1CCC(c2nc3ccccc3[nH]2)CC1)Nc1ccc2c(c1)OCO2`, the cell number change came out at 7.01%. Besides, under setting [1], the AC50 is 0.146 µM [rising, full curve, poor fit].
As to `Cc1ccc(S(=O)(=O)N2CCCC(C(=O)NC3=NCCS3)C2)cc1` (stereo not given), the cell number change is -74.8%. For the same molecule, the AC50 under setting [2] was 29.1 µM [falling, single point].
In the case of `CCN(C(=O)CSc1nnc(-c2c[nH]c3ccccc23)n1C1CC1)C1CCS(=O)(=O)C1` (stereo not given), the cell number change was -34%. Further, the AC50 under setting [2] is 2.06 µM [falling, partial curve]. The AC50 under setting [1] is 2.06 µM [falling, partial curve].
As for `O=C(N[C@@H](Cc1ccccc1)C(=O)OCc1ccccc1)c1nc[nH]c1C(=O)NCc1ccccc1`, the cell number change is -14.2%. For the same molecule, under setting [1], the AC50 was 6.51 µM [rising, single point].
As for `CCOC(=O)c1ccc(-n2c(C)ccc2C)cc1`, the cell number change turned out to be 11.1%. Also, the AC50 under setting [1] is 29.1 µM [rising, single point].
Consider `CN1CCN(C(=O)c2ccc3c(=O)n(Cc4ccc(Cl)cc4)c(=S)[nH]c3c2)CC1`, for which the cell number change was -17.7%. Under setting [1], the AC50 is 0.461 µM [falling, full curve, poor fit].
As for `CC(C)C1CC(CCN2CCCCC2)(c2ccccc2)CCO1` (stereo not given), the cell number change is -53.1%. Also, under setting [2], the AC50 was 8.2 µM [falling, partial curve, poor fit]. Further, the AC50 under setting [1] is 0.651 µM [falling, full curve, poor fit].
For the molecule `OC(COCc1ccc(Cl)cc1)CN1CCN(CC(O)COCc2ccc(Cl)cc2)CC1` (stereo not given), the cell number change is -160%. Besides, the AC50 under setting [2] was 29.1 µM [falling, single point]. Also, the AC50 under setting [1] was 29.1 µM [falling, single point].
